# Measured values reported in the supplement of paper PMC12889115.
# This is one part of the list. Values are raw readings; no control value is given beside them.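 Primary screen: polymyxin B was added at a level permeabilizing Salmonella outer membranes while sparing inner membranes. DMSO wells, both with and without polymyxin B, established maximum growth. Plate-to-plate variation meant each plate was ranked on its own, and the lowest-OD600 compounds were selected as hits.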
# Test system: Salmonella enterica serovar Typhimurium SL1344
# Assay: bacterial growth OD600 after 18 h with compound and polymyxin B; higher = more bacterial growth (less inhibition)
# Conditions: 50 µM, Mueller-Hinton broth
smiles,measurement,setting,value
CC(C)N1CCC(N2CCCC(C(=O)NCc3ccc(F)c(F)c3)C2)CC1 (centres undefined),bacterial growth OD600,polymyxin B 0.75 µg/mL,0.853
CC(C)CCN(C)C(=O)C1CCCN(C2CCN(C(=O)C3CC3)CC2)C1 (centres undefined),bacterial growth OD600,polymyxin B 0.75 µg/mL,1.01
CCN(Cc1ccncc1)C(=O)CC1(c2ccccc2OC)CC(=O)N(CCCOC)C1=O (centres undefined),bacterial growth OD600,polymyxin B 0.75 µg/mL,1
CN(CCC1CCOCC1)C(=O)c1ccc(OC2CCN(C(=O)C3CC3)CC2)cc1,bacterial growth OD600,polymyxin B 1 µg/mL,0.863
COCc1ccc(C(=O)NCc2c(C)ncc3c2CCN(C(=O)c2cc(CC(C)C)on2)C3)o1,bacterial growth OD600,polymyxin B 0.75 µg/mL,0.778
Cc1c[nH]c(C(=O)N2CCC3(CCCN(Cc4ccccc4F)C3=O)C2)n1 (centres undefined),bacterial growth OD600,polymyxin B 1 µg/mL,0.946
COCC(=O)Nc1cc(C(=O)NCC2CCN(CC(C)C)CC2)cc2nc(-c3cccnc3)n(C)c12,bacterial growth OD600,polymyxin B 0.75 µg/mL,0.731
Cc1ncc(CN2CC[C@@H](N3CCCCCC3)[C@H](O)C2)cn1,bacterial growth OD600,polymyxin B 0.75 µg/mL,0.813
CCOC(=O)CCNC(=O)c1ccc2nc(-c3cccc(OC)c3)oc2c1,bacterial growth OD600,polymyxin B 1 µg/mL,1.06
CCOC(=O)C1(C/C=C/c2ccccc2)CCCN(C)C1 (centres undefined),bacterial growth OD600,polymyxin B 0.75 µg/mL,0.818
CCc1[nH]c2c(CNCc3cnn(CC)c3)cc(F)cc2c1C,bacterial growth OD600,polymyxin B 0.75 µg/mL,0.78
COc1ccc(NC(=O)CCC2CCCN(CCCn3cccn3)C2)cc1Cl (centres undefined),bacterial growth OD600,polymyxin B 1 µg/mL,0.901
CCCS(=O)(=O)NCc1cccnc1Oc1ccc(F)c(F)c1,bacterial growth OD600,polymyxin B 1 µg/mL,0.827
O=C(COc1ccccc1)Nc1ccc(N2CCC(NCCCOc3cccnc3)CC2)cc1,bacterial growth OD600,polymyxin B 0.75 µg/mL,0.875
O=C(c1cn(C2CCCCC2)nn1)N1CCCC(OCc2ccccc2)C1 (centres undefined),bacterial growth OD600,polymyxin B 1 µg/mL,0.639
Fc1ccccc1Cc1noc(CN2CCC(N3CCSCC3)CC2)n1,bacterial growth OD600,polymyxin B 1 µg/mL,1.05
Cn1nccc1C(=O)NC1CC(C)(C)Cc2nc(N3CCOCC3)ncc21 (centres undefined),bacterial growth OD600,polymyxin B 0.75 µg/mL,0.986
COc1ccc(F)c(CC2(CCC(=O)NC(C3CC3)C3CC3)CCC(=O)N2)c1 (centres undefined),bacterial growth OD600,polymyxin B 0.75 µg/mL,0.737
COc1cccc(CN2CCCC(NCc3nccn3-c3cccc(C)c3)C2)c1 (centres undefined),bacterial growth OD600,polymyxin B 1 µg/mL,0.84

# In a second layout: results already given.
smiles	measurement	setting	value
CCN(Cc1ccncc1)C(=O)CC1(c2ccccc2OC)CC(=O)N(CCCOC)C1=O (centres undefined)	bacterial growth OD600	polymyxin B 0.75 µg/mL	1
CN(CCC1CCOCC1)C(=O)c1ccc(OC2CCN(C(=O)C3CC3)CC2)cc1	bacterial growth OD600	polymyxin B 1 µg/mL	0.863
